No constants are given. Whether binding was seen depends on the method and setting. Binding seen in cells or lysates may run through a third protein. Some binding calls cover weakened binding; strength is not graded here.
Key:
[1] = biological target: FLAG-tagged CycT1 (1-278) H183A (human) (UniProt O60563); test: co-IP; HEK293 cells co-transfected with FLAG-CycT1 (WT or mutant), HA-Tat and Myc-CDK9; high salt lysis buffer (50mM Tris-HCl pH 8.0, 300mM NaCl, 1mM EDTA, 0.5% NP-40, 10% glycerol); immunoprecipitated with anti-M2 (FLAG) beads 4hr at 4°C; blotted with anti-HA and anti-Myc
[2] = biological target: FLAG-tagged CycT1 (1-278), wild type (human) (UniProt O60563); test: as above
[3] = biological target: HA-tagged HIV-1 Tat (HIV-1) (UniProt P04608); test: co-IP; same lysates of HEK293 cells co-transfected with FLAG-CycT1 (WT or mutant), HA-Tat and Myc-CDK9; high salt lysis buffer (300mM NaCl); immunoprecipitated with anti-HA antibody 4hr, then protein G-agarose 2 hr at 4°C; blotted for FLAG-CycT1 and Myc-CDK9

Sequences of proteins named here, by UniProt entry; tags and fusion partners are left off. A change or cut given only in a name is not applied to a line headed by its entry. A line that says so, or that is headed by a name, gives the form on record, which may keep a tag or linker. Residues count along the entry.
FLAG-tagged CycT1 (1-278), wild type (O60563, residues 1-278): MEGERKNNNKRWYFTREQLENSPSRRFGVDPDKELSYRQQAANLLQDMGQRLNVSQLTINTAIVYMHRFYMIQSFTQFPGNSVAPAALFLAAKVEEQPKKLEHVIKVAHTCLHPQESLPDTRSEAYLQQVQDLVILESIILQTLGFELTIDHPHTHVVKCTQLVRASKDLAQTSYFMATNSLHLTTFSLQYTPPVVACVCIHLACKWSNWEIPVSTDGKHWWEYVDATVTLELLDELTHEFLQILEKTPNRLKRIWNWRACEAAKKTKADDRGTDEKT
FLAG-tagged CycT1 (1-278) H183A (O60563, form named): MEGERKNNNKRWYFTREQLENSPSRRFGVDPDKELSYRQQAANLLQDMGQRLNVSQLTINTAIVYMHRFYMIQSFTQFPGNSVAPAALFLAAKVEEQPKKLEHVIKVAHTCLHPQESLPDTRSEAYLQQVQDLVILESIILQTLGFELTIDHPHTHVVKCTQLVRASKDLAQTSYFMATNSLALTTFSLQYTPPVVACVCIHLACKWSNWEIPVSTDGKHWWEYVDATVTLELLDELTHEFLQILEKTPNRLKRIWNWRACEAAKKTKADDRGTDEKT
UniProt P04608: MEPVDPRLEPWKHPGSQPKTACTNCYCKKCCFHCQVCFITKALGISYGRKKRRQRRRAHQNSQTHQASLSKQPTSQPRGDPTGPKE

Substance: HA-tagged HIV-1 Tat (from UniProt P04608 1-86)
- binding [1]: binds
- binding [2]: binds

Substance: FLAG-tagged CycT1 (1-278), wild type (from UniProt O60563 1-278) (domain or fragment)
- binding [3]: binds

— publication PMC4363469
